Patent US9091678B2, “Method for identifying compounds useful for treating and/or preventing disease-associated bone loss” (priority 2008, dated 2015)
The name of at least one read-out is uncertain.

Test system: osteoclasts
Experiment: Resorption inhibition test on calcium phosphate mineralised matrix
Type: cell-based
Conditions: 72 hours, at the concentration given in Table 2, silver nitrate staining

SMILES | Resorption
O=Cc1cn(Cc2ccc(Cl)c(Cl)c2)c2ccccc12 [Compound 35, 1-(3,4-dichlorobenzyl)-1H-indole-3-carbaldehyde] | +/−
O=C1NC(=O)N(c2ccccc2Cl)C(=O)C1=Cc1ccccc1 [Compound 48, 5-benzylidene-1-(2-chlorophenyl)-2,4,6(1H,3H,5H)-pyrimidinetrione] | +/−
